Results are given in words; binding and its absence hold for the method and conditions named. Some binding calls cover weakened binding; strength is not graded here.

Protein sequences, listed by entry. Tags and fused reporters are not part of them. Residues count along the entry.
UniProt Q9EPN1, residues 2137-2936: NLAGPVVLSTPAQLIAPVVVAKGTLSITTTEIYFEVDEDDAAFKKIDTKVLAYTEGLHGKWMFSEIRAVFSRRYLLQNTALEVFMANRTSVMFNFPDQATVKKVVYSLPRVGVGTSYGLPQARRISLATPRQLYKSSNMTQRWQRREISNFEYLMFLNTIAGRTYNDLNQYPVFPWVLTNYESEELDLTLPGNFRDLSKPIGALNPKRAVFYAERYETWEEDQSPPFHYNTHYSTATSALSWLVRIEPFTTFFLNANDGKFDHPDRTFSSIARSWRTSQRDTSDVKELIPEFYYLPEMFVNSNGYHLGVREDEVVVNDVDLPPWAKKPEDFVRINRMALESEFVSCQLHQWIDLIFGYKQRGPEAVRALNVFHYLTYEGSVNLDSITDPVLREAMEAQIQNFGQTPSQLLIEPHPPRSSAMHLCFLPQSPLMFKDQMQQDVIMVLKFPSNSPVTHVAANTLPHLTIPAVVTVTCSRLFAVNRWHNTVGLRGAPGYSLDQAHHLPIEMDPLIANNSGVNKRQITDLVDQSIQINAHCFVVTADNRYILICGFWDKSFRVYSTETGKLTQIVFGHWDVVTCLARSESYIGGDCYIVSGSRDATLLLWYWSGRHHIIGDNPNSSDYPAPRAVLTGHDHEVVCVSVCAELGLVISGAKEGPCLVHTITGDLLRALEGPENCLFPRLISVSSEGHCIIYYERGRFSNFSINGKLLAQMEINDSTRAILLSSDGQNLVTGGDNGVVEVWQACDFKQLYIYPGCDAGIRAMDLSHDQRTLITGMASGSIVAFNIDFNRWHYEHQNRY
UniProt Q01705, residues 2223-2457: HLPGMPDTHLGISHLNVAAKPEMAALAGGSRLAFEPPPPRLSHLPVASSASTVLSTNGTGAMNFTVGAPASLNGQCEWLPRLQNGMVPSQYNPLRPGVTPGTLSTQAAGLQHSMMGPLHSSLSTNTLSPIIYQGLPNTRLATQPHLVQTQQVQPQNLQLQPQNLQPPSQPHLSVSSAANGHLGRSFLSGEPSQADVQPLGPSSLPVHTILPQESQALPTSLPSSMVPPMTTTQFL

This is an account of results in article PMC4801420.

The assay addresses NBEA PBW domain module (PH-like-BEACH-WD40), yeast two-hybrid bait (mouse) (UniProt Q9EPN1). Description: two-hybrid; library screen by Hybrigenics Services: bait pB27-PBW in the L40ΔGal4 yeast strain, against a mouse embryonic (E10.5 and E12.5) brain cDNA library.

“NOTCH1 intracellular domain (NICD) prey fragment His2223-Leu2457 (from UniProt Q01705 2223-2457) (domain or fragment)”: the binding entry is “binds”.
